Experimental data published in publication doi:10.1101/2023.03.16.532763 (bioRxiv, 2023).
These are yes or no findings as the source states them, for the method shown. Binding seen in cells or lysates may run through a third protein. Where a sequence is shown, tags or fusion partners need not be part of it.

Chains of the proteins cited; added tags and fusions are not shown.
UniProt O75417: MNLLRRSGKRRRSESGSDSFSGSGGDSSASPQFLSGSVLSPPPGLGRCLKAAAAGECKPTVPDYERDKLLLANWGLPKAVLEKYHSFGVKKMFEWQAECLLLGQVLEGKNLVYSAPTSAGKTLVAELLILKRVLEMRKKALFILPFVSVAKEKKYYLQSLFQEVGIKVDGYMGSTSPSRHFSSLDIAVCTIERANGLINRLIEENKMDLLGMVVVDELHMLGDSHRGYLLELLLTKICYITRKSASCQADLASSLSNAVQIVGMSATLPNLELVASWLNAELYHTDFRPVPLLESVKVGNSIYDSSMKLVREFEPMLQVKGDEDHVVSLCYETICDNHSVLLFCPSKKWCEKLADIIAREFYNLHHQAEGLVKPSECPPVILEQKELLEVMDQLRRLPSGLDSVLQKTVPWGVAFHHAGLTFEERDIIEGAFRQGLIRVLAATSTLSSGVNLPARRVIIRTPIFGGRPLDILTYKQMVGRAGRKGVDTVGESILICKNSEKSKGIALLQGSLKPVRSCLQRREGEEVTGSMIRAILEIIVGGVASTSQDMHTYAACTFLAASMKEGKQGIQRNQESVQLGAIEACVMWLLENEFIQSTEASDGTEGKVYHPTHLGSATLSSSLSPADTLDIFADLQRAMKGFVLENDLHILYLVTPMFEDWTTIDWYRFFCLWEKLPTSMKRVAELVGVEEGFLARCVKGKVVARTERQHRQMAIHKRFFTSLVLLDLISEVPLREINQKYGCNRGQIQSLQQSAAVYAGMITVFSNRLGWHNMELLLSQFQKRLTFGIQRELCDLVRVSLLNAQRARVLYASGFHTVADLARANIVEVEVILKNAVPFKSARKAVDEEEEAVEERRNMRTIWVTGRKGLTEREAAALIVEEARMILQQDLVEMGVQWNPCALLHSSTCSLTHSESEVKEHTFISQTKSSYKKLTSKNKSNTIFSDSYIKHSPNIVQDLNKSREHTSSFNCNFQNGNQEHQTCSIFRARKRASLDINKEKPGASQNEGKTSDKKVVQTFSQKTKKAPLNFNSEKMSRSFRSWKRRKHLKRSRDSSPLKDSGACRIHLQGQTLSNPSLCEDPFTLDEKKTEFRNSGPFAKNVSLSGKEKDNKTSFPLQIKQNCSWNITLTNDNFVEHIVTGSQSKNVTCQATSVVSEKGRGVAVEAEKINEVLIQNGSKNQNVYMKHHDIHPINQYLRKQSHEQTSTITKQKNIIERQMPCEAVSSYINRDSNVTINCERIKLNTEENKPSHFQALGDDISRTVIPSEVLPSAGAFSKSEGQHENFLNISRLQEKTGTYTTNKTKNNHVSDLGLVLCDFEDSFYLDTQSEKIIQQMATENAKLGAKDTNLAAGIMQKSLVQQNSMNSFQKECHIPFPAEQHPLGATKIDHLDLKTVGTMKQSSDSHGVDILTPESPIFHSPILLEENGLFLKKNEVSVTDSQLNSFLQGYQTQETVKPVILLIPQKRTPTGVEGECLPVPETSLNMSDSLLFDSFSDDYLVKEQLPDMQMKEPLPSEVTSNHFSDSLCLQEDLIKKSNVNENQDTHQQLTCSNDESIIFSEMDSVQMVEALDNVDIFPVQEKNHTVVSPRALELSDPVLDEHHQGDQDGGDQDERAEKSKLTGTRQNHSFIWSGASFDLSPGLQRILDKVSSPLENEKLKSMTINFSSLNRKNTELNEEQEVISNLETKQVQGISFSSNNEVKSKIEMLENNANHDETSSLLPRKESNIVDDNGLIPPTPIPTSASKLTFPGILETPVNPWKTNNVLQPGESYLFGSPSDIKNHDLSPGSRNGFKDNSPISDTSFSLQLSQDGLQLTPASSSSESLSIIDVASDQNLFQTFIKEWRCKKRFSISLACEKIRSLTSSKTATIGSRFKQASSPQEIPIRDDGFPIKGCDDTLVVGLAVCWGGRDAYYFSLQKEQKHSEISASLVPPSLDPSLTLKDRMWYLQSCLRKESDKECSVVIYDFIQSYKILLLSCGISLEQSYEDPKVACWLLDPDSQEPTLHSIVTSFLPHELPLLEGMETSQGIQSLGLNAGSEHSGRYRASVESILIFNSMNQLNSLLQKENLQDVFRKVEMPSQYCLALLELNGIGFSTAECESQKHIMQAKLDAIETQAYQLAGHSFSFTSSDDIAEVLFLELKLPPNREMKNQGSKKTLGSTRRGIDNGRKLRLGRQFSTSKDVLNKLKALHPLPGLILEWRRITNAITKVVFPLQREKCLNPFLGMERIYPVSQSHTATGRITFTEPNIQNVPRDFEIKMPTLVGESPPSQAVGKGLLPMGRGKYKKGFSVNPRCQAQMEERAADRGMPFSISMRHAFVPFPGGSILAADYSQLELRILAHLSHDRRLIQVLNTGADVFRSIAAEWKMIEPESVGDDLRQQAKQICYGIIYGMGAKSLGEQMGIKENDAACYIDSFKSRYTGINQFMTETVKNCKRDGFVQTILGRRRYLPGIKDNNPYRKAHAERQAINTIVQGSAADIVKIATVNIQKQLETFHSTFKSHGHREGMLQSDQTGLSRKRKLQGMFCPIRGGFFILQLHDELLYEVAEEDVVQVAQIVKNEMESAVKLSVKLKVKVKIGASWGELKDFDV

B1: HUS1-3XFLAG (pCMV14-HUS1-3XFLAG) (protein, UniProt O60921 1-280)
chain: MKFRAKIVDGACLNHFTRISNMIAKLAKTCTLRISPDKLNFILCDKLANGGVSMWCELEQENFFNEFQMEGVSAENNEIYLELTSENLSRALKTAQNARALKIKLTNKHFPCLTVSVELLSMSSSSRIVTHDIPIKVIPRKLWKDLQEPVVPDPDVSIYLPVLKTMKSVVEKMKNISNHLVIEANLDGELNLKIETELVCVTTHFKDLGNPPLASESTHEDRNVEHMAEVHIDIRKLLQFLAGQQVNPTKALCNIVNNKMVHFDLLHEDVSLQYFIPALS
B2: RAD1-HA (pCMV-RAD1-HA) (protein, UniProt O60671 1-282)
chain: MPLLTQQIQDEDDQYSLVASLDNVRNLSTILKAIHFREHATCFATKNGIKVTVENAKCVQANAFIQAGIFQEFKVQEESVTFRINLTVLLDCLSIFGSSPMPGTLTALRMCYQGYGYPLMLFLEEGGVVTVCKINTQEPEETLDFDFCSTNVINKIILQSEGLREAFSELDMTSEVLQITMSPDKPYFRLSTFGNAGSSHLDYPKDSDLMEAFHCNQTQVNRYKISLLKPSTKALVLSCKVSIRTDNRGFLSLQYMIRNEDGQICFVEYYCCPDEEVPESES
B3: RAD9A-MYC (pCMV-RAD9A-MYC) (protein, UniProt Q99638 1-391)
chain: MKCLVTGGNVKVLGKAVHSLSRIGDELYLEPLEDGLSLRTVNSSRSAYACFLFAPLFFQQYQAATPGQDLLRCKILMKSFLSVFRSLAMLEKTVEKCCISLNGRSSRLVVQLHCKFGVRKTHNLSFQDCESLQAVFDPASCPHMLRAPARVLGEAVLPFSPALAEVTLGIGRGRRVILRSYHEEEADSTAKAMVTEMCLGEEDFQQLQAQEGVAITFCLKEFRGLLSFAESANLNLSIHFDAPGRPAIFTIKDSLLDGHFVLATLSDTDSHSQDLGSPERHQPVPQLQAHSTPHPDDFANDDIDSYMIAMETTIGNEGSRVLPSISLSPGPQPPKSPGPHSEEEDEAEPSTVPGTPPPKKFRSLFFGSILAPVRSPQGPSPVLAEDSEGEG

Target: FLAG-Polθ (full-length human POLQ in pLPC-Flag vector) (human) (UniProt O75417)
Assay: co-IP

Row | Binder | binding
1 | B1 | no binding
2 | B2 | no binding
3 | B3 | no binding
